Laboratory results from article PMC7943007.
No constants are given. Whether binding was seen depends on the method and setting. Binding seen in cells or lysates may run through a third protein. Some binding calls cover weakened binding; strength is not graded here.

The chains behind the UniProt entries cited, without tags or fusion partners.
UniProt Q9UER7: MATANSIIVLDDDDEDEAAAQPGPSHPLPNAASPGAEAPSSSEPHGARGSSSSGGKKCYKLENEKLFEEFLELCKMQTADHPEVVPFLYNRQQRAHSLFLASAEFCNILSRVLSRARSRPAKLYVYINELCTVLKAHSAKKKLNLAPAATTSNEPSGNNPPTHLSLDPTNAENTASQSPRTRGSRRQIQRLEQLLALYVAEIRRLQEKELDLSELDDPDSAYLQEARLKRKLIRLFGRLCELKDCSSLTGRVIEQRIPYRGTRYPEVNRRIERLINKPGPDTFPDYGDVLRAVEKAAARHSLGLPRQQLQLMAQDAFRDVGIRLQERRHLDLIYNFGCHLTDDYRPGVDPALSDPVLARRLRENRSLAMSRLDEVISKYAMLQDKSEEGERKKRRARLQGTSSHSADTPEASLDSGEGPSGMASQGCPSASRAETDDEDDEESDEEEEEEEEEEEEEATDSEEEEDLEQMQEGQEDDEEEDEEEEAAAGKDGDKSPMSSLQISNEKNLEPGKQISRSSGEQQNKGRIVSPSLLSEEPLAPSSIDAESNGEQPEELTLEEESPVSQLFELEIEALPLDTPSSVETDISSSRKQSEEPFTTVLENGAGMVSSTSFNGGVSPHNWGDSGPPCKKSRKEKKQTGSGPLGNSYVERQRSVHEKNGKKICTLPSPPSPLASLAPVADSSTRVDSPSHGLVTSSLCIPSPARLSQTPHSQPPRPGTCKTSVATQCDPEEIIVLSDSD
UniProt Q9QR71: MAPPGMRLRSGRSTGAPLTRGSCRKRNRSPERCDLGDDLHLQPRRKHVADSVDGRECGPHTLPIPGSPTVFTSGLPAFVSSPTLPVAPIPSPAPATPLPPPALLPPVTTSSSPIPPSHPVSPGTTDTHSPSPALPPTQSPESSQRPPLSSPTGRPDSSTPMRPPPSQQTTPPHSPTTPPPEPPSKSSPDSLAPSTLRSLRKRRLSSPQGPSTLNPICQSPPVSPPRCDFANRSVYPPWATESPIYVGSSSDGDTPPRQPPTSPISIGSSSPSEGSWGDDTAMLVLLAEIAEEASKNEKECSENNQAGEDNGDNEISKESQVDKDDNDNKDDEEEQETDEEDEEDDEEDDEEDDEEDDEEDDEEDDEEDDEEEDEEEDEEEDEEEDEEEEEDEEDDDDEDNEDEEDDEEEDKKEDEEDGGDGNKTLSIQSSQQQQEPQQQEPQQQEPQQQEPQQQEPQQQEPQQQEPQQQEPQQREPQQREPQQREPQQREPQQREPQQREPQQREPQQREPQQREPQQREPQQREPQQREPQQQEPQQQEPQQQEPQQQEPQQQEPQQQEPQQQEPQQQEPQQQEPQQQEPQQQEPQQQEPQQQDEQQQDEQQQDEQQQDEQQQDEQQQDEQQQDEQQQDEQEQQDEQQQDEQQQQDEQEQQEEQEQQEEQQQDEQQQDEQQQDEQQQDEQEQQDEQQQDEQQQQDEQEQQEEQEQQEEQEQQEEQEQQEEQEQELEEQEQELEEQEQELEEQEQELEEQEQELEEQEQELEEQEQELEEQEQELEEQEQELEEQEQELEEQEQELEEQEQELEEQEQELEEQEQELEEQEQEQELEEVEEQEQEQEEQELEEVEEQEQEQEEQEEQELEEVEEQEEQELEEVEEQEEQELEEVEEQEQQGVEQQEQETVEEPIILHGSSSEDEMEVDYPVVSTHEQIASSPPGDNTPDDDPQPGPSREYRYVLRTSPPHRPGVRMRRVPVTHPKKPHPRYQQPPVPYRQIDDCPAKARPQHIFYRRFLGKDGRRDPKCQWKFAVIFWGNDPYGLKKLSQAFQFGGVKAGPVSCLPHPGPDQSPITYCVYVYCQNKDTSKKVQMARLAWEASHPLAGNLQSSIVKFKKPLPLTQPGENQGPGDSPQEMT

Molecular target: DAXX (human (endogenous in iSLK)) (UniProt Q9UER7)
Assay: co-IP; iSLK RFP-LANA cells, untreated (DMSO control) or treated with 3.5% 1,6-Hexanediol for 1 hr; lysis in 20 mM Tris pH 7.5, 137 mM KCl, 1 mM EDTA, 1.5 mM MgCl2, 10% glycerol, 1% Triton X-100; IP with antibodies to LANA, DAXX or control IgG at 4 C overnight; washes BC200 and BC100; Western blot

Substance: RFP-LANA (KSHV latency-associated nuclear antigen, expressed from KSHV BAC16) (from UniProt Q9QR71 1-1129)
- binding: binds
